Laboratory results taken from US10517965B2, “Bioorthogonal turn-on probes” (The General Hospital Corporation, priority 2013, dated 2019).

Test: Fluorogenic characterization of HELIOS probes on reaction with TCOc
Assay type: physicochemical
Details: unreacted probe in PBS
Method: As described above, the fluorescence purity of all HELIOS compounds was verified by LCMS prior to quantitative activation experiments, for which a fresh aliquot of the fluorophore collected from the analytical HPLC elution was used. Exceptionally pure material is required to obtain the peak measured turn-on ratios, as the presence of trace bright contaminants limits the maximum observable ratio.
Stock solutions of the freshly-purified tetrazine dyes were prepared in MeCN and stored in the dark at 4° C. during experiments. For fluorescence measurements, the probes diluted into 2 mL or 3 mL of phosphate buffered saline (PBS), pH 7.4 (Corning, cellgro) in a standard 10 mm quartz cuvette. […] Fluorescence experiments were conducted at a range of dye concentrations spanning 100 nM-750 nM, with 500 nM being a typical working concentration. […] After addition of TCOc (typically a 20-fold excess, as above), the fluorescence emission intensity was monitored until a plateau was reached. Activation ratios were calculated from the peak emission intensity of the dihydropyridazine product and the corresponding baseline intensity over background. Data were normalized to set the initial background fluorescence of the HELIOS probe to one unit over background, as plotted in FIG. 9 in the main text.

Cc1nnc(-c2cccc(-c3c(C)c4cc5c6c(c4oc3=O)CCCN6CCC5)c2)nn1 [HELIOS 400Me]
Fluorescence in native state: negligibly fluorescent

Cc1nnc(-c2ccc(-c3c(C)c4cc5c6c(c4oc3=O)CCCN6CCC5)cc2)nn1 [HELIOS 400pMe]
Fluorescence in native state: negligibly fluorescent
